Results: paper PMC7226812

Sequences of proteins named here, by UniProt entry; tags and fusion partners are left off. A change or cut given only in a name is not applied to a line headed by its entry. Residues count along the entry.
UniProt Q13619: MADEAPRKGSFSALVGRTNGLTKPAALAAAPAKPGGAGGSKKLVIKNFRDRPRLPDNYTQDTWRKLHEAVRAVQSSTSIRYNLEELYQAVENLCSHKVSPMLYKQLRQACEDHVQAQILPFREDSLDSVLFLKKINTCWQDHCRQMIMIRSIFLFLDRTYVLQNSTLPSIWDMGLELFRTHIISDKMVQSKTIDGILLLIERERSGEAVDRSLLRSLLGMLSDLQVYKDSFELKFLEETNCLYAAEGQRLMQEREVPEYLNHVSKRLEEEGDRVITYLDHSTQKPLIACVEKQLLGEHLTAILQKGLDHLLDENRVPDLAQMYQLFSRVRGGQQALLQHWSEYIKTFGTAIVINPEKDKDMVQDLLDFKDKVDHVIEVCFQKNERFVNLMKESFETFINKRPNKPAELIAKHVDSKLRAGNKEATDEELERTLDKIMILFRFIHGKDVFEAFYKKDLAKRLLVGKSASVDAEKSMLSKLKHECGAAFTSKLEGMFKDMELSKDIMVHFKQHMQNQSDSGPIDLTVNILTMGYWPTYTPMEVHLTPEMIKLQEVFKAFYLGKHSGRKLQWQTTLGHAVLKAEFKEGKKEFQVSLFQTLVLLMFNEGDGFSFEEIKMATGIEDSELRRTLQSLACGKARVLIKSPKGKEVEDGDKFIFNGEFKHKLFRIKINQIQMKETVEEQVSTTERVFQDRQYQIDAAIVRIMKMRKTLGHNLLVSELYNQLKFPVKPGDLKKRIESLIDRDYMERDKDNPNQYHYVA
UniProt Q8TEB1: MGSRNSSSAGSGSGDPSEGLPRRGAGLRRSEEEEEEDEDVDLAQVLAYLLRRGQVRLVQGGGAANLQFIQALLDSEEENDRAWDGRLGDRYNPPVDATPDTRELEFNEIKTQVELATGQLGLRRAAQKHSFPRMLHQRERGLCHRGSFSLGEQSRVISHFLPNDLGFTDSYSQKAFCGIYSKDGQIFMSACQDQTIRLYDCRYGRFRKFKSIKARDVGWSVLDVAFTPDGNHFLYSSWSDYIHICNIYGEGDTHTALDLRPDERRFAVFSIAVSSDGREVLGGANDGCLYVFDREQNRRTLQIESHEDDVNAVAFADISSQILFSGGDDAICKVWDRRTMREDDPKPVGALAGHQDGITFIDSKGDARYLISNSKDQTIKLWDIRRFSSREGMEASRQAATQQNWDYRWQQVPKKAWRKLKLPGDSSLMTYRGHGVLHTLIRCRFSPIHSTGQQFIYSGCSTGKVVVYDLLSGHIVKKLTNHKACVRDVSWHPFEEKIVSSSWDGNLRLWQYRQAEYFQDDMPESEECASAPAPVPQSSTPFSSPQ
UniProt Q5TAQ9: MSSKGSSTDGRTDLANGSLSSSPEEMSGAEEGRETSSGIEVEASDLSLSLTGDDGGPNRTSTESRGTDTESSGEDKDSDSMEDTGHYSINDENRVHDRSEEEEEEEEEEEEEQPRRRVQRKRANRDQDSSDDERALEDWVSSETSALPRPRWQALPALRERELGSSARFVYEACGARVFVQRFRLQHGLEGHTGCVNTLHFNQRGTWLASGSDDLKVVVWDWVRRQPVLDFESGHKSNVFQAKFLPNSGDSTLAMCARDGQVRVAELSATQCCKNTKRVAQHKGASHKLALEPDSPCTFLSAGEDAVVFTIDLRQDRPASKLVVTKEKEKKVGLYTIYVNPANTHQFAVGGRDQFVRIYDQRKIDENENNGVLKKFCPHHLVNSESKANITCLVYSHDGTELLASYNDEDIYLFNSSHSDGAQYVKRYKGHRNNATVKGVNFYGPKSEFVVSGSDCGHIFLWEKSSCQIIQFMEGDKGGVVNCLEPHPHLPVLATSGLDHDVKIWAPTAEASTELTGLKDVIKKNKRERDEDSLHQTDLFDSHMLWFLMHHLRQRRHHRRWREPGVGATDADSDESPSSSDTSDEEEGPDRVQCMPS
UniProt Q96SW2: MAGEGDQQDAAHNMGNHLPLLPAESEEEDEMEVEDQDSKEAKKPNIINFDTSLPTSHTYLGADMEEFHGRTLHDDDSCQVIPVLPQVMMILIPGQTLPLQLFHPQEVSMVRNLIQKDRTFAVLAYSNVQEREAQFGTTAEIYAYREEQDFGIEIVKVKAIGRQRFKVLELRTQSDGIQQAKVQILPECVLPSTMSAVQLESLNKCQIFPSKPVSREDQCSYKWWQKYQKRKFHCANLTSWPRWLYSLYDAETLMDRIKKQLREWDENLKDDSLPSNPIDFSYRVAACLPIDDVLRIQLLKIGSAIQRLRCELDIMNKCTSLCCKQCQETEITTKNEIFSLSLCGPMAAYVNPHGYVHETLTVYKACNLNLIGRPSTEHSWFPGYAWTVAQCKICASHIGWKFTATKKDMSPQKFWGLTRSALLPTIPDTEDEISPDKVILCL
UniProt Q06323: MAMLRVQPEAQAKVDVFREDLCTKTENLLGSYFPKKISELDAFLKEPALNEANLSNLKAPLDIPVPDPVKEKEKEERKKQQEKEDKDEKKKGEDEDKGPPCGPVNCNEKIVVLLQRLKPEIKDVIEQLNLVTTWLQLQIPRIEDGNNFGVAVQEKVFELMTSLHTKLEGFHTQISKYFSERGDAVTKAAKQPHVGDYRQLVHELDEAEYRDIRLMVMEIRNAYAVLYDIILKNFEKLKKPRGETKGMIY
UniProt Q14997: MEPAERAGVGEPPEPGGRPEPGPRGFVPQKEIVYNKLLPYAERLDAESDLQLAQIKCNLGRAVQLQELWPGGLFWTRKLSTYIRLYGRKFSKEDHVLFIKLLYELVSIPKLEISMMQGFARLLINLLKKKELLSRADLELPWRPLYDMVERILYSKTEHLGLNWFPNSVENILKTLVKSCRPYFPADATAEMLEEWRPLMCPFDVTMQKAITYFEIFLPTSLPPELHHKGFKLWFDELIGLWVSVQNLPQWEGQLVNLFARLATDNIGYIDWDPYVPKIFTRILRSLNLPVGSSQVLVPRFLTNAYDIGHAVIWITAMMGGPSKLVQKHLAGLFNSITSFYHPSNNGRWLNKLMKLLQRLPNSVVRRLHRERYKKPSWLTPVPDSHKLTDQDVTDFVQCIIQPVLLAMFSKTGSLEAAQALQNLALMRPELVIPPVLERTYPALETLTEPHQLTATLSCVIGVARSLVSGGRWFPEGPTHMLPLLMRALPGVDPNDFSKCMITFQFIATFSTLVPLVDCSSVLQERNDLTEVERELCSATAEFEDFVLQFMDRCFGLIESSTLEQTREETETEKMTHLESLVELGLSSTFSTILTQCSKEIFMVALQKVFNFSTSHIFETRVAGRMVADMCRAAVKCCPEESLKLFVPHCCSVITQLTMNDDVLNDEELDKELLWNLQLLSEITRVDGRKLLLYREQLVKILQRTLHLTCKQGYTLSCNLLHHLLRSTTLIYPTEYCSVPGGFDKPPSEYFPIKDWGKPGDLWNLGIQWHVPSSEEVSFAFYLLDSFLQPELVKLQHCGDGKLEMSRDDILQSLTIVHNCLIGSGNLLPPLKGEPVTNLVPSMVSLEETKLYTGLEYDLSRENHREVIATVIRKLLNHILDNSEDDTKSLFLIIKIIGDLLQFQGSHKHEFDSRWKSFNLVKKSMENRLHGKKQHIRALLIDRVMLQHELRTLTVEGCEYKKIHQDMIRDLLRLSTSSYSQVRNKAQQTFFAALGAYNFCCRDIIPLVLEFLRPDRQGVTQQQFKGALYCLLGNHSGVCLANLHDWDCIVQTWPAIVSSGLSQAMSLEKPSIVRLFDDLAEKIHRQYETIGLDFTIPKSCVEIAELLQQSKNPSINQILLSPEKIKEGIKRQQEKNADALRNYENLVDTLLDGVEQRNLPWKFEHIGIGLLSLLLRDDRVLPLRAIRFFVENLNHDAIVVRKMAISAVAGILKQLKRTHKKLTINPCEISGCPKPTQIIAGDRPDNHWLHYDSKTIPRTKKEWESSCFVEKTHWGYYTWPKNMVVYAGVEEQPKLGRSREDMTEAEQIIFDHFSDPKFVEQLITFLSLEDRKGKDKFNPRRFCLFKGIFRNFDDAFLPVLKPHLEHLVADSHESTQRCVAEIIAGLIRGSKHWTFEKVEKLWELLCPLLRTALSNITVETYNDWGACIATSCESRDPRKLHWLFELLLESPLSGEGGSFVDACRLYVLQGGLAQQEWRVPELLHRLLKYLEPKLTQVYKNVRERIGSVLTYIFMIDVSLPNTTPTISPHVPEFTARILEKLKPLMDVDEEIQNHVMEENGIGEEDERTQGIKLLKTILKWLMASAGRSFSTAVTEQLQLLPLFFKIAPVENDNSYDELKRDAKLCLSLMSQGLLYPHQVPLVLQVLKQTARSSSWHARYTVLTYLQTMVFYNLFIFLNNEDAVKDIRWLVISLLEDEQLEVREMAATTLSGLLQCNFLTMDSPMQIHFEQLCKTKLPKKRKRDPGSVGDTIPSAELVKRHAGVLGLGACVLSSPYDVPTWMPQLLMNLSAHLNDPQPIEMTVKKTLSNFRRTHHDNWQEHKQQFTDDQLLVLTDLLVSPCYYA
UniProt Q13586, residues 23-685: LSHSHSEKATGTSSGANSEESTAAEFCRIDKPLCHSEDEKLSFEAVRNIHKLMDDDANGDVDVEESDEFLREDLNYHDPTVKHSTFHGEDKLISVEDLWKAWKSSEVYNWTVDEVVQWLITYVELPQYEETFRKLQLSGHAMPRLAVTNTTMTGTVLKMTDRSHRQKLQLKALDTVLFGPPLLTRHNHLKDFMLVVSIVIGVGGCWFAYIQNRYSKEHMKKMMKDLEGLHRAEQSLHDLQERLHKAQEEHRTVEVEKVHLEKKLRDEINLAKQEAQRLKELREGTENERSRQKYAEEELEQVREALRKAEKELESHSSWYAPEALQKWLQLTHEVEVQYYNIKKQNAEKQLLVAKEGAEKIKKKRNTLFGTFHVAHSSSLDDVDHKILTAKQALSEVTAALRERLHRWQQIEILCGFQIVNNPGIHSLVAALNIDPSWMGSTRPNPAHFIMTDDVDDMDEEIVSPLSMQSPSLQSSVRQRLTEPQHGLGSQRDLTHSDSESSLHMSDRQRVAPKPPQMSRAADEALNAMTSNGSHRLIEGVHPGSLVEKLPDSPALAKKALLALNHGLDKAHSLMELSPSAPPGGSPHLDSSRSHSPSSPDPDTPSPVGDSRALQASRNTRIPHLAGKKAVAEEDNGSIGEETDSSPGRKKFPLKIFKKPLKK
UniProt P67775: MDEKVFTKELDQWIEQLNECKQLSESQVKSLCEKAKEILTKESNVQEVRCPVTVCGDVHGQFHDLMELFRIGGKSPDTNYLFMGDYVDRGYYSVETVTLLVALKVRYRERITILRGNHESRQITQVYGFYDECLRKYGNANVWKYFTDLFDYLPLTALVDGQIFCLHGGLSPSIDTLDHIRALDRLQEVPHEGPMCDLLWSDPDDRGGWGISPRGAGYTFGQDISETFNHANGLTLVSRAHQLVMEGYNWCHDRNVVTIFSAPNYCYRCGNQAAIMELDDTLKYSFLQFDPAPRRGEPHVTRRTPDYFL
UniProt Q09028: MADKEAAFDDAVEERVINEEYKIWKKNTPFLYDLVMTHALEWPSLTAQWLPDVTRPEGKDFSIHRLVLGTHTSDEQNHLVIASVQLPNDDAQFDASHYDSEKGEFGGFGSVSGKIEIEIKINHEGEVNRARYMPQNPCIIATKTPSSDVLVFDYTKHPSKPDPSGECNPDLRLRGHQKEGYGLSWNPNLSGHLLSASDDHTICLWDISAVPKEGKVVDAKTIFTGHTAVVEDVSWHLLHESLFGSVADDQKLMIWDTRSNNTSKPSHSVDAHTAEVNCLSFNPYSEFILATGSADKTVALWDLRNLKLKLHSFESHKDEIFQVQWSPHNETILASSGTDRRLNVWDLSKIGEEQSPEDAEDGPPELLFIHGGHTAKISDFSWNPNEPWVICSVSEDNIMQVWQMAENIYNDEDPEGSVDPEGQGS
UniProt P17844: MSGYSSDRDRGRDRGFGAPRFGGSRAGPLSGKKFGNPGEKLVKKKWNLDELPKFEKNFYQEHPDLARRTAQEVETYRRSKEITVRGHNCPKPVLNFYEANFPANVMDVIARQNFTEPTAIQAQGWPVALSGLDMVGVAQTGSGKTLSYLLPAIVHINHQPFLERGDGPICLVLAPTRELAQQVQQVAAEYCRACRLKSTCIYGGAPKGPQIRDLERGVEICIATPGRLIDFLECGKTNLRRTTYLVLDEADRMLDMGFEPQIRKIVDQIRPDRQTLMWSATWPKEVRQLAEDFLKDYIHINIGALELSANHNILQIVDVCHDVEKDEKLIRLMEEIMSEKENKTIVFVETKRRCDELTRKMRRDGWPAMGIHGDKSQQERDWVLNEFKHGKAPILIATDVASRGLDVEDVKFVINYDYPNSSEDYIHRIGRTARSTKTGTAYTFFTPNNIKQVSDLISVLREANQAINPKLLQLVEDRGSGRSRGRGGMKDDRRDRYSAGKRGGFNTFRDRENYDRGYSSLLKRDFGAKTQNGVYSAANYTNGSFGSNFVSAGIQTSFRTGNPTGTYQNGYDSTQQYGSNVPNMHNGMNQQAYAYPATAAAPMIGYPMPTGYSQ

Columns and labels:
Assay in all cases: affinity purification with mass spectrometry
[1] = molecular target: cullin 4A (human (endogenous in human hepatocytes of chimeric mouse liver)) (UniProt Q13619)
[2] = molecular target: DCAF11 (IP from HepG2 cells) (human) (UniProt Q8TEB1)
[3] = molecular target: DCAF8 (IP from HepG2 cells) (human) (UniProt Q5TAQ9)
[4] = molecular target: cereblon (IP from HepG2 cells) (human) (UniProt Q96SW2)

| Substance | binding [1] | also measured |
| --- | --- | --- |
| Proteasome Activator Subunit 1 (from UniProt Q06323 1-249) | binds | – |
| DCAF8 (from UniProt Q5TAQ9 1-597) | binds | – |
| Proteasome Activator Subunit 4 (from UniProt Q14997 1-1843) | binds | – |
| Stromal Interaction Molecule 1 (from UniProt Q13586 23-685) | binds | – |
| CUL4A (HepG2 cells) (from UniProt Q13619 1-759) | – | binding [2]: binds; binding [3]: binds; binding [4]: binds |
| Protein Phosphatase 2 Catalytic Subunit Alpha (from UniProt P67775 1-309) | binds | – |
| RBBP4 (from UniProt Q09028 1-425) | binds | – |
| Cereblon (from UniProt Q96SW2 1-442) | binds | – |
| DEAD box protein 5 (from UniProt P17844 1-614) | binds | – |
| DDB1 (HepG2 cells) (from UniProt Q16531 1-1140) | – | binding [2]: binds; binding [3]: binds |

These are yes or no findings as the source states them, for the method shown. Binding seen in cells or lysates may run through a third protein. Here binding means that the protein was enriched with, or labelled near, the bait; the list need not be complete.
